{"source": "patent US20130183348A1", "about": "“Inhibitor of HMGB Protein-Mediated Immune Response Activation, and Screening Method” (JAPAN SCIENCE AND TECHNOLOGY AGENCY, published 2013)", "molecular_target": "T1, HMGB1 (Mus musculus) (UniProt P63158)", "T1 sequence (limits assumed)": "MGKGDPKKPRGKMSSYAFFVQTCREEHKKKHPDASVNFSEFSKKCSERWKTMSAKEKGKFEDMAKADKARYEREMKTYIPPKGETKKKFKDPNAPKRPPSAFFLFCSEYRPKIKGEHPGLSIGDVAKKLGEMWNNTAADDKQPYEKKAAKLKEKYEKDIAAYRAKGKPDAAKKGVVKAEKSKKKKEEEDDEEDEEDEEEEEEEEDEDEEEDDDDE", "assay": "competition with a labelled probe", "settings": "weaker than CpG-M(S) against biotin-CpG-B(S), 0-32 uM; purified recombinant protein; single-stranded DNA; variant of CpG-M(S)", "note": "The comparison behind a weaker result is the experiment's own reference, which may not be listed here. Where a protein sequence is shown, tags need not be part of it.", "data": [{"sequence": "TCCATGAGGTTCCTGATGCT [ODN(CpG-M) phosphodiester]", "values": [{"measurement": "binding result", "value": "binds more weakly"}]}]}
